This note sets out measurements from article PMC4851828.

One assay deals with T1, Spt6-TAP (S. cerevisiae) (UniProt P23615).
T1 sequence: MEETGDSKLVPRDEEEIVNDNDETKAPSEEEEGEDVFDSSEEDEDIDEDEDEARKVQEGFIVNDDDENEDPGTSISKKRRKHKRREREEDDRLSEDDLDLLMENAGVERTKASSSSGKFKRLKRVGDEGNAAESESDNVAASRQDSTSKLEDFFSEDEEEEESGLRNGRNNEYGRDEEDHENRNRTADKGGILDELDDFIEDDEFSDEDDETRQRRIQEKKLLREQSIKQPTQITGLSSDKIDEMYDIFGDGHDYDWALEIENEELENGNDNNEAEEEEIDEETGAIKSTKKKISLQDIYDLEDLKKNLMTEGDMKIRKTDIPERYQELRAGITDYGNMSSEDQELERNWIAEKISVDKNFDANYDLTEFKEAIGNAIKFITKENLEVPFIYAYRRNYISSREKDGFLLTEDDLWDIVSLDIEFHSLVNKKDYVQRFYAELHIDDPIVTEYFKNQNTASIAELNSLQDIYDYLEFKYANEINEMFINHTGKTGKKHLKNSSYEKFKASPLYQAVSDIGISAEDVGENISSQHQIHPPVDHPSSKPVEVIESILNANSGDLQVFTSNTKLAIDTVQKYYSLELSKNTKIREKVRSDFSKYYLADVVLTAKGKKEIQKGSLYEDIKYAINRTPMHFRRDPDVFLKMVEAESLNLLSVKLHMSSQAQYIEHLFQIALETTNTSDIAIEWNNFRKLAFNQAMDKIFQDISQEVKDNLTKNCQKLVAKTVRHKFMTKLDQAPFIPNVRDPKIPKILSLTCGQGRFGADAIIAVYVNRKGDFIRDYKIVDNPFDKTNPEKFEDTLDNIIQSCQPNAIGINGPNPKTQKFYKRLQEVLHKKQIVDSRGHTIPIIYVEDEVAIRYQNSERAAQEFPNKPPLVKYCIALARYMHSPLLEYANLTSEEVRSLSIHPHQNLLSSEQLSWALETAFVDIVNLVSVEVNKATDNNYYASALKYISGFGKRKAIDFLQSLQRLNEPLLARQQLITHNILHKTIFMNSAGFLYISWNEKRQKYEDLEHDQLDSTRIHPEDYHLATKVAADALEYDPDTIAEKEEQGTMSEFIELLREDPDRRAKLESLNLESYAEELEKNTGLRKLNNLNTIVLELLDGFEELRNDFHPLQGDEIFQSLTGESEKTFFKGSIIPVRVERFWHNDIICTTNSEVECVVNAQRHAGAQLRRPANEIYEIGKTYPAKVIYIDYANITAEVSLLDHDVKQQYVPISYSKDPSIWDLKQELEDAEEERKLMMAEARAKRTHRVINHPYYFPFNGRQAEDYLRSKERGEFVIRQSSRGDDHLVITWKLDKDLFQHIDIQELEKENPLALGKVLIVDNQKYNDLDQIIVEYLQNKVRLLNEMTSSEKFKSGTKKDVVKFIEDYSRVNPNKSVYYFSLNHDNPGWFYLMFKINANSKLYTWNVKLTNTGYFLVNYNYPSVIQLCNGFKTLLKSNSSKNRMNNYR
Briefly: pull-down; TAP-tag pull-down: yeast whole cell extract (5 mg protein; 20 mM HEPES pH 7.4, sodium acetate, 2 mM magnesium acetate, 10 mM EDTA, 10 % glycerol, 1 mM DTT) with IgG sepharose, 4 °C, 3.5 h; washed twice with lysis buffer with 400 mM sodium chloride; immunoblot for histone H3 and TAP.

The target of a further assay is T2, Spt2-TAP (S. cerevisiae) (UniProt P06843).
T2 sequence: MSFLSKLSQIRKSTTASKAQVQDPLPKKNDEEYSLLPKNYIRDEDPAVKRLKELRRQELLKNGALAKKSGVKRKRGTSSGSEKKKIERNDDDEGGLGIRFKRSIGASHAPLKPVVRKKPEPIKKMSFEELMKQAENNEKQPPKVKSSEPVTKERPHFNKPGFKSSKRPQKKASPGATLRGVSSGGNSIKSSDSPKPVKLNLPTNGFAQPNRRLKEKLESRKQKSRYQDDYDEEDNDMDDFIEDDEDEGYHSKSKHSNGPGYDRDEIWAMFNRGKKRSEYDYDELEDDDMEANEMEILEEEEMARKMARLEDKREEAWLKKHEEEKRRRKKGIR
The assay is described as above.

Results are given in words; binding and its absence hold for the method and conditions named. Binding seen in cells or lysates may run through a third protein. Some entries that bind do so weakly or less than the wild type.

For “histone H3 (WT synthetic histone allele, HHTS) (from UniProt P61830 1-136)”, the binding result in the assay with Spt6-TAP (S. cerevisiae) and in the assay with Spt2-TAP (S. cerevisiae) was “binds” throughout.

On to “histone H3 K122A (from UniProt P61830 1-136)”, for which the binding result in the assay with Spt6-TAP (S. cerevisiae) and with Spt2-TAP (S. cerevisiae) was “binds” in each case.

Take “histone H3 Q120A (from UniProt P61830 1-136)”: the binding entry in the assay with Spt6-TAP (S. cerevisiae) and in the assay with Spt2-TAP (S. cerevisiae) was “binds” in each case.

As to “histone H3 R49A (from UniProt P61830 1-136)”, the binding result in the assay with Spt6-TAP (S. cerevisiae) and with Spt2-TAP (S. cerevisiae) was “binds” throughout.
